# Experimental data taken from patent publication US4604236A, “Calcitonin analogs” (priority 1985, dated 1986).
# At least one peptide structure holds a part that was inferred or is arguable (an end, a ring closure or a residue). Peptide text beside a SMILES is read from it.
# Tested on: serum calcium concentration
# Assay: Biological assay of calcitonin analogs in vivo: reduction of serum calcium concentration versus salmon calcitonin standard, 2×2 parallel line assay
# Settings: rats, subcutaneous injection, blood withdrawn 1 hour later, compared with synthetic salmon calcitonin standard
# Experimental: The biological potency of des-13-serine-salmon calcitonin was determined by comparing the reduction of serum calcium concentration which followed administration by graded doses of des-Ser^13 -SCT and synthetic salmon calcitonin standard. Rats were divided into four groups of seven animals, and each group was assigned at random to a dose of standard or test solution. Low and high doses were chosen from the linear portion of the dose-response curve. For the salmon calcitonin standard, the values were 0.7 and 2.1 ng. peptide/100 g. body weight (BW). This dose approximates 3 and 9 MU/100 g. BW. Peptides were given by subcutaneous injection (0.2 ml/100 g. BW) and blood was withdrawn 1 hour later for serum calcium determination. Sera are processed and analyzed within two hours of collection. […]. Results were analyzed by a 2×2 parallel line assay [Gaddum, J. H., J. Pharm. Pharmacol., 6, 345 (1953)]. The standard salmon calcitonin used was independently determined to contain greater than 4,000 IU/mg. des-Ser^13 -SCT assayed at 4650 IU/mg.
smiles,measurement,value
"CC(C)C[C@H](NC(=O)[C@H](CCCCN)NC(=O)CNC(=O)[C@H](CC(C)C)NC(=O)[C@@H](NC(=O)[C@@H]1CSSC[C@H](N)C(=O)N[C@@H](CO)C(=O)N[C@@H](CC(N)=O)C(=O)N[C@@H](CC(C)C)C(=O)N[C@@H](CO)C(=O)N[C@@H]([C@@H](C)O)C(=O)N1)C(C)C)C(=O)N[C@@H](CCC(N)=O)C(=O)N[C@@H](CCC(=O)O)C(=O)N[C@@H](CC(C)C)C(=O)N[C@@H](Cc1c[nH]cn1)C(=O)N[C@@H](CCCCN)C(=O)N[C@@H](CC(C)C)C(=O)N[C@@H](CCC(N)=O)C(=O)N[C@H](C(=O)N[C@@H](Cc1ccc(O)cc1)C(=O)N1CCC[C@H]1C(=O)N[C@@H](CCCNC(=N)N)C(=O)N[C@H](C(=O)N[C@@H](CC(N)=O)C(=O)N[C@H](C(=O)NCC(=O)N[C@@H](CO)C(=O)NCC(=O)N[C@H](C(=O)N1CCC[C@H]1C(N)=O)[C@@H](C)O)[C@@H](C)O)[C@@H](C)O)[C@@H](C)O [des-Ser^13 -SCT, des-13-serine-salmon calcitonin] (HELM PEPTIDE1{C.S.N.L.S.T.C.V.L.G.K.L.Q.E.L.H.K.L.Q.T.Y.P.R.T.N.T.G.S.G.T.P.[am]}$PEPTIDE1,PEPTIDE1,1:R3-7:R3$$$V2.0)",biological potency (reduction of serum calcium concentration),4650 IU/mg
